# Measured values published in PubChem BioAssay AID504834 (National Center for Advancing Translational Sciences (NCATS), 2011).
# Out of some 320,000 compounds screened, about 22,000 (6.9%) were called active. Inconclusive means that the source gave no clear call. Such entries were picked first, then a sample of the others. The call rests on the fitted dose curve; in most records, active means well fitted inhibition curve with a large enough effect; inconclusive means small, poorly fitted or top-dose-only effect, or another doubt; inactive means no such curve, though single readings can be large or run the other way. Potencies beside an inconclusive call are fits to weak or partial responses and may not hold up.
# Assay: Primary qHTS for delayed death inhibitors of the malarial parasite plastid, 96 hour incubation
# Conditions: P. falciparum luciferase reporter growth; series mostly up to 28.7 µM
# Method in brief: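 Luminescence readout: decreased luciferase signal marks inhibited growth of reporter-expressing P. falciparum in infected red cells (2% hematocrit, 0.05% parasitemia final), exposed to compound two generations (96 h, 37 C, 5% CO2).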
# Potency means the concentration at half of the fitted maximal effect.
row,Compound,Potency
1,COc1ccc(CCNC(=O)C2CCN(S(=O)(=O)c3cnc[nH]3)CC2)cc1OC,"inconclusive: 0.0738 µM [inhibitor, full curve, poor fit]"
2,CCc1ccc(CNC(=O)C2CCCN(c3nnc(C)c4c(C)n(-c5ccccc5)nc34)C2)cc1 (stereo not given),"inconclusive: 14.7 µM [inhibitor, single point]"
3,CCN1CCN(Cc2ccc(NC(=O)c3ccc(C)c(/C=C/c4cnc(Nc5cc(N6CCNCC6)nc(C)n5)cn4)c3)cc2C(F)(F)F)CC1,"inconclusive: 0.415 µM [inhibitor, full curve, poor fit]"
4,c1ccc(NNC2=NCCS2)cc1,"inconclusive: 4.15 µM [inhibitor, partial curve]"
5,CCCCCCN1Cc2ccccc2C1,inactive
6,CCOC(=O)c1c(NC(=O)COC(=O)Cc2ccccc2[N+](=O)[O-])sc(C(=O)N(C)C)c1C,inactive
7,Cc1c(C(=O)Nc2ccccc2[N+](=O)[O-])csc1-c1ccccc1,inactive
8,CCOC(=O)c1ccccc1NC(=O)CC(C)CC(=O)O (stereo not given),"inconclusive: 11.7 µM [inhibitor, partial curve]"
9,COc1ccc(CNC(=O)Cc2cccs2)cc1OC,inactive
10,O=C(NCc1ccc2c(c1)OCO2)c1sccc1Br,inactive
11,CCOC(=O)c1cn(Cc2ccc(C)cc2)c2cc(F)ccc2c1=O,"inconclusive: 11.7 µM [inhibitor, single point]"
12,COc1ccc(NC(=O)CSc2nc(SC)ns2)c(OC)c1,inactive
13,COc1ccc(CCN(C)C(=O)C2CC(=O)N(Cc3ccc(C)cc3)C2)cc1OC (stereo not given),"inconclusive: 10.4 µM [inhibitor, single point]"
14,O=C(COC(=O)/C=C/c1cn(-c2ccccc2)nc1-c1ccc2c(c1)OCCO2)NC1CCS(=O)(=O)C1 (stereo not given),"inconclusive: 14.7 µM [inhibitor, single point]"
15,O=S(=O)(c1ccc(Cl)c(S(=O)(=O)N2CCCC2)c1)N1CCCC1,inactive
16,O=C(C[n+]1cc(Br)cc(Br)c1)c1ccc(Cl)cc1,"inconclusive: 18.5 µM [inhibitor, partial curve, poor fit]"
17,OC(CN1CCN(c2cccc(Cl)c2)CC1)c1ccc(F)cc1 (stereo not given),"inconclusive: 6.57 µM [inhibitor, partial curve]"
18,COc1ccc(/C=C2\SC(=S)N(CCC(=O)NCCc3ccc(O)cc3)C2=O)cc1,inactive
19,Cc1ccc2cc3c(N)c4c(C)ccc(C)c4nc3nc2c1,inactive
20,CCOC(=O)Cc1csc(NC(=O)CSc2nnnn2-c2ccc(C)cc2C)n1,"inconclusive: 2.94 µM [inhibitor, single point]"
21,COc1ccc(C2(C)NC(=O)N(CC(=O)Nc3ccc4ccccc4c3)C2=O)cc1OC (stereo not given),"inconclusive: 6.57 µM [inhibitor, partial curve]"
22,Cc1cc(NC(=O)CSc2nnc(-c3ccccc3)o2)no1,active: 11.7 µM
23,O=C(Oc1ccc2c(c1)OCO2)c1cccs1,inactive
24,Cc1ccc2oc(C(=O)N(C)CCC(O)c3ccccc3)c(C)c2c1 (stereo not given),"inconclusive: 20.8 µM [inhibitor, partial curve, poor fit]"

row,Compound,Potency
1,CCOc1cc(N2CCOCC2)c(OCC)cc1NC(=O)c1cc(C)cc(C)c1,"inconclusive: 4.65 µM [inhibitor, partial curve]"
2,CCCN(CC(=O)Nc1cc(Cl)ccc1Cl)C(=O)c1ccc(N2CCCC2=O)cc1,"inconclusive: 1.04 µM [inhibitor, partial curve, poor fit]"
3,COCCN(CCOC)C(=O)COC(=O)c1cc([N+](=O)[O-])ccc1Cl,inactive
4,Cc1ccc(-n2cccc2/C=C2/NC(=O)N(CC(=O)Nc3cccc(C)c3)C2=O)cc1,inactive
5,O=C(c1cnc(N2CCN(c3ncccn3)CC2)c2ccccc12)N1CCN(c2ncccn2)CC1,"inconclusive: 10.4 µM [inhibitor, partial curve, poor fit]"
6,O=C(NC1CCCCC1)C1CCN(S(=O)(=O)c2cccs2)CC1,"inconclusive: 10.4 µM [inhibitor, single point]"
7,O=C(c1cc(COc2c(F)cccc2F)on1)N1CCN(C2CCCCC2)CC1,inactive
8,CN(C(=O)c1ccccc1C(=O)OCC(=O)NC(=O)NC(C)(C)C)C1CCCCC1,inactive
9,COc1ccc2c(c1)OC(O)(C(F)(F)C(F)F)CC2=O (stereo not given),active: 0.828 µM
10,Cc1ccc(S(=O)(=O)N2[C@@H](c3ccc(F)cc3)C(C(=O)O)=CC[C@H]2c2ccc3c(c2)OCO3)cc1,active: 11.7 µM
11,COC(=O)[C@@]1(Cc2ccc(F)cc2)[C@H]2c3cc(C(=O)N(C)C)n(Cc4ccc(OC(F)(F)F)cc4)c3C[C@H]2CN1C(=O)c1ccccc1,active: 2.33 µM
12,CN(C(=O)c1ccc(F)c(S(=O)(=O)N2CCOCC2)c1)C1CCCCC1,"inconclusive: 8.28 µM [inhibitor, partial curve, poor fit]"
13,COc1ccc(C(=O)NC(=S)Nc2cc(C)ccn2)cc1[N+](=O)[O-],active: 4.65 µM
14,Cc1cc2n(c(=O)c1C#N)CCCN2c1cccc(Cl)c1,"inconclusive: 16.5 µM [inhibitor, partial curve, poor fit]"
15,O=C(O)/C=C\C(=O)N1CCc2ccccc21,"inconclusive: 10.4 µM [inhibitor, partial curve, poor fit]"
16,CCN1CCN(CC(O)COc2ccc(C(C)=O)cc2)CC1 (stereo not given),"inconclusive: 20.8 µM [inhibitor, single point]"
17,CS(=O)(=O)NNC(=O)c1sccc1OCc1ncc(C(F)(F)F)cc1Cl,inactive
18,COc1ccc(C2C(C(=O)Nc3ccccc3)=C(C)Nc3nc(CCCO)nn32)cc1 (stereo not given),active: 13.1 µM
19,CC(C)c1cc(N2CCC(=O)NC2=O)cc(C(=O)O)c1O,inactive
20,Cc1ccc(-n2c(-c3ccc(Br)cc3)c[n+]3c2CCc2ccc4cccnc4c2-3)cc1,active: 0.465 µM
21,O=C(Nc1ccccc1Cl)C(=O)c1cn(CC(=O)N2CCOCC2)c2ccccc12,active: 11.7 µM
22,C(=N\Nc1nc(Nc2ccccc2)nc(N2CCCCC2)n1)/c1ccco1,"inconclusive: 6.57 µM [inhibitor, partial curve]"
23,Cc1cccc(N(Cc2ccccc2)C(=O)c2ccc(F)c(S(=O)(=O)N3CCOCC3)c2)c1,active: 11.7 µM
24,Cc1nn(C(C)C(=O)c2cccc(Cl)c2)c(C)c1[N+](=O)[O-] (stereo not given),"inconclusive: 18.5 µM [inhibitor, single point]"

# 3 structures from above, arranged by SMILES length, rising.
row,Compound,Potency
14,Cc1cc2n(c(=O)c1C#N)CCCN2c1cccc(Cl)c1,"inconclusive: 16.5 µM [inhibitor, partial curve, poor fit]"
24,Cc1nn(C(C)C(=O)c2cccc(Cl)c2)c(C)c1[N+](=O)[O-] (stereo not given),"inconclusive: 18.5 µM [inhibitor, single point]"
8,CN(C(=O)c1ccccc1C(=O)OCC(=O)NC(=O)NC(C)(C)C)C1CCCCC1,inactive

# Further compounds.

row,Compound,Potency
1,Cc1cccc(-n2c(SCc3ccc(C#N)cc3)nnc2-c2c[nH]c3ccccc23)c1,"inconclusive: 13.1 µM [inhibitor, partial curve, poor fit]"
2,COc1ccc(-c2cc(C(F)(F)F)nc(SCC(=O)NCCCN3CCOCC3)n2)cc1,"inconclusive: 8.28 µM [inhibitor, partial curve, poor fit]"
3,CN(CC(=O)Nc1n[nH]c(=S)s1)S(=O)(=O)c1cccc2cccnc12,active: 5.22 µM
4,CS(=O)(=O)N(CC(=O)N1CCCC1)c1ccccc1Br,"inconclusive: 11.7 µM [inhibitor, partial curve, poor fit]"
5,O=C(Nc1cccc(-c2csc(Nc3cccc(C(F)(F)F)c3)n2)c1)c1cc([N+](=O)[O-])cc(C(F)(F)F)c1,"inconclusive: 18.5 µM [inhibitor, single point]"
6,Cc1ccc(OC(C)C(=O)N2CCCc3ccccc32)cc1 (stereo not given),"inconclusive: 10.4 µM [inhibitor, partial curve, poor fit]"
7,Cc1ccc(NC(=O)C2CCN(S(=O)(=O)c3ccc4c(c3)NC(=O)C(C)S4)CC2)cc1C (stereo not given),"inconclusive: 10.4 µM [inhibitor, partial curve]"
8,CCOCCCNC(=O)c1cc(=O)n(Cc2cccc(C)c2)c2ccccc12,inactive
9,COC(=O)c1sc(S(=O)(=O)NCc2ccccc2)c(C(=O)OC)c1C,inactive
10,CC(C)c1csc(CN2CCC(CO)(Cc3ccccc3)CC2)n1,inactive
11,Cc1ccc(-c2csc(N3CCN(c4cc5c(cc4Cl)nc(C(C)N)n5CCCO)CC3)n2)cc1 (stereo not given),"inconclusive: 5.86 µM [inhibitor, partial curve, poor fit]"
12,C/C(CCC(C)C)=N\Nc1cc(C)c2ccccc2n1,active: 16.5 µM
13,O=C1C2C3C=CC(C3)C2C(=O)N1Nc1ccc([N+](=O)[O-])cc1[N+](=O)[O-] (stereo not given),"inconclusive: 0.104 µM [inhibitor, full curve, poor fit]"
14,O=C(NCc1ccccn1)c1nn(-c2ccccc2)c(=O)c2ccccc12,inactive
15,C=CCn1c(SCC(=O)NCC2CCCO2)nc2sc(C)c(C)c2c1=O (stereo not given),"inconclusive: 20.8 µM [inhibitor, partial curve, poor fit]"
16,CN(Cc1ccccc1)C1CC(=O)N(c2ccc(C(=O)O)cc2)C1=O (stereo not given),inactive
17,CO/N=C/c1c(-c2ccccc2)nn(C)c1Cl,inactive
18,O=C(CN1C(=O)c2ccccc2S1(=O)=O)c1cccc(Br)c1,inactive
19,CC(C)C[C@H](NC(=O)[C@@H]1Cc2ccccc2CN1C(=O)OC(C)(C)C)C(=O)NCC1CCC(C(=O)O)CC1 (stereo not given in full),"inconclusive: 18.5 µM [inhibitor, single point]"
20,O=C(O)COc1ccccc1/C=N/Nc1ccc(S(=O)(=O)N2CCOCC2)cc1[N+](=O)[O-],"inconclusive: 11.7 µM [inhibitor, single point]"
21,COc1ccc(-n2cc(-c3ccccc3)[nH]c2=S)cc1,"inconclusive: 16.5 µM [inhibitor, single point]"
22,CCCCCn1c(SCC(=O)OCC)nc2cc(C(=O)N3CCC(C(N)=O)CC3)ccc2c1=O,inactive
